The values below come from PubChem BioAssay AID493014 (National Center for Advancing Translational Sciences (NCATS), 2011).

A short description of this assay: qHTS Assay to Find Inhibitors of Chronic Active B-Cell Receptor Signaling. Conditions: ABC-DLBCL IkBa-CBG/CBR reporter, luminescence ratio (green luciferase fused to IkBa over red control in TMD8 lymphoma cells), 4 h. Put shortly:
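Cell line TMD8 (human ABC DLBCL), stably expressing tet-inducible CBG68-IkBa fusion and CBR; IMDM/0.5% FBS; cpd up to 46 uM; dox induction, 4 h, 37C/5% CO2; dual luminescence; green/red ratio; MG132 control.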
In general terms: qHTS replaces the single test concentration by a dilution series.

Setting [1] is: measured here: CBR red luminescence, cell number.
[2] abbreviates: measured here: IkBa-CBG green luminescence.

The list shows a part of the results. Shown are side measurements of this screen, not its main read-out; they come without a call. The list favours compounds with an active or inconclusive main result. Words in brackets tell the shape of the fitted curve; partial curves, single points and poor fits give uncertain potencies.

As a reminder, the AC50 is the concentration giving half of the maximal activity seen.

As for `COc1ccc(-c2csc(NC(=S)NC(=O)c3ccco3)n2)cc1`, under setting [1], the AC50 is 1.26 µM [rising, full curve, poor fit].

Turning to `Cc1ccc2cc(CN(CCCO)S(=O)(=O)c3ccccc3F)c(=O)[nH]c2c1C`, under setting [1], the AC50 is 3.16 µM [falling, full curve].

Regarding `COc1ccccc1CNCC(O)Cn1c2ccccc2c2ccccc21` (configuration not stated), the AC50 under setting [1] is 11.6 µM [falling, partial curve, poor fit].

In the case of `O=C(COC(=O)CNC(=O)c1ccccc1)Nc1ccccc1Cl`, under setting [1], the AC50 is 17.8 µM [rising, partial curve, poor fit].

Take `COc1cccc(NC(=O)CSc2nc(=O)[nH]c3c2CCCC3)c1`: under setting [1], the AC50 is 14.1 µM [falling, single point].

Take `CC(CO)(CO)NCc1ccc(-c2ccccc2)cc1`: the AC50 under setting [1] is 16.4 µM [rising, single point].

With `O=c1oc2ccccc2c(NCc2ccccc2)c1[N+](=O)[O-]`, the AC50 under setting [1] was 4.11 µM [falling, partial curve].

`O=C(CCn1cnc2ccccc2c1=O)Nc1ccc(S(=O)(=O)N2CCCCC2)cc1`: the AC50 under setting [1] is 3.55 µM [falling, partial curve, poor fit].

Consider `CCCC(C)c1nnc(NC(=O)CCS(=O)(=O)Cc2ccccc2)s1` (configuration not stated), for which the AC50 under setting [1] is 2 µM [falling, full curve, poor fit].

Take `O=Cc1cc2ccccc2nc1SCc1ccc(Cl)cc1`: the AC50 was 1.78 µM [rising, full curve, poor fit] under setting [1] and 3.16 µM [falling, single point] under setting [2].

For the compound `Cc1ccc(-c2nc(-c3ccncc3)no2)cc1`, the AC50 under setting [1] was 1 µM [rising, partial curve, poor fit].

Turning to `Cc1ccc(C(C)C)c(OCC(=O)Nc2cccc(S(=O)(=O)NC3=NCCCCC3)c2)c1`, the AC50 under setting [1] was 25.1 µM [falling, single point].

Regarding `CCCCNc1ccc2nsnc2c1[N+](=O)[O-]`, the AC50 under setting [1] was 20.6 µM [rising, partial curve, poor fit].

For the compound `COc1ccccc1/C=C/C=N/NC(=O)Cc1cccs1`, under setting [1], the concentration at half-maximal activity (AC50) was 20.6 µM [falling, partial curve, poor fit].

As to `COc1ccc(C(=O)c2ccccc2)cc1Br`, under setting [1], the half-maximal activity concentration (AC50) was 11.2 µM [rising, partial curve].

Turning to `CC(C)C(OC(=O)CCC(=O)Nc1nccs1)C(=O)NC1CCCCC1` (configuration not stated), the AC50 under setting [1] was 12.6 µM [falling, partial curve, poor fit].

As to `COc1ccccc1CNC(=O)c1cccc(NC(=O)c2ccccc2)c1`, under setting [1], the AC50 is 35.5 µM [falling, single point].

For the compound `CCCCn1c(SC(C)C(=O)NCC2CCCO2)nc2cc(C(=O)OC)ccc2c1=O` (configuration not stated), the half-maximal activity concentration (AC50) under setting [1] is 1.64 µM [falling, partial curve, poor fit].

`O=C(Nc1cccc(Cl)c1)N1N=CCC1c1ccccc1` (configuration not stated): the AC50 under setting [1] is 2.51 µM [rising, full curve, poor fit].

Regarding `CN1CCN(NC(=O)Nc2ccc(Br)cc2)CC1`, the AC50 under setting [1] is 3.55 µM [rising, full curve].

Turning to `COc1cc(C)ccc1OCCOc1c(C)cccc1Cl`, the AC50 under setting [1] is 17.8 µM [rising, partial curve].

As for `Cc1csc(NC(=O)CSc2nc3ccccc3c3c2CCCC3)n1`, the AC50 is 2.59 µM [falling, full curve] under setting [1] and 16.4 µM [rising, partial curve, poor fit] under setting [2].

With `CC(C)CC(NC(=O)c1ccc(Cl)cc1)C(=O)OCC(=O)c1ccc2c(c1)NC(=O)CO2` (configuration not stated), the AC50 under setting [1] was 16.4 µM [rising, partial curve].

Regarding `COc1cc(/C=C/C(=O)O)cc(S(=O)(=O)N2CCc3ccccc3C2)c1OC`, the half-maximal activity concentration (AC50) under setting [1] was 6.31 µM [rising, single point].

In the case of `CCC(CC)C(=O)Nc1cccc(C(=O)Nc2ccc(OC)cc2[N+](=O)[O-])c1`, the AC50 under setting [1] was 4.47 µM [rising, full curve, poor fit].

`CCC(C)Sc1cccc(-c2nc3ccc(C)cn3c2NCc2ccccc2)c1` (configuration not stated): the AC50 under setting [1] was 6.51 µM [falling, single point].

In the case of `CN(C)CCCN(C(=O)c1ccc2c(c1)CCCC2)c1nc2cc3c(cc2s1)OCO3`, the AC50 under setting [1] is 12.6 µM [falling, single point].

For the compound `CN=C1SC(CC(=O)Nc2ccc(N3CCOCC3)cc2)C(=O)N1C` (configuration not stated), under setting [1], the AC50 was 18.4 µM [rising, single point].

On to `Cc1cc(Cl)ccc1OCC(=O)N(Cc1cccs1)C1CCS(=O)(=O)C1` (configuration not stated), for which the AC50 under setting [1] is 20 µM [falling, partial curve, poor fit].

As to `COc1ccc2cc(OCC(=O)NNC(=O)Nc3ccc(OC)c(OC)c3)ccc2c1`, the half-maximal activity concentration (AC50) under setting [1] is 8.91 µM [falling, partial curve].

As to `COc1ccc(-c2nn(-c3ccccc3)cc2/C=C(\C#N)C(N)=O)cc1[N+](=O)[O-]`, under setting [1], the AC50 was 3.55 µM [rising, partial curve, poor fit].

With `O=C(Nc1ccc2c(c1)OCCO2)C1CC(c2ccc(F)cc2)=NO1` (configuration not stated), the AC50 under setting [1] was 12.6 µM [falling, single point].

As to `COc1ccc2cc(CN(CCc3ccccc3)Cc3nnnn3CC3CCCO3)c(=O)[nH]c2c1` (configuration not stated), the half-maximal activity concentration (AC50) under setting [1] is 2.82 µM [falling, full curve, poor fit].

As to `CCN(C(=O)COC(=O)c1ccc(Cl)c(N)c1)C1CCS(=O)(=O)C1` (configuration not stated), the concentration at half-maximal activity (AC50) under setting [1] was 3.55 µM [falling, full curve].

Take `Cc1cc(C(F)(F)F)c(C#N)c(SCC(=O)NC2CC2)n1`: the AC50 under setting [1] is 12.6 µM [rising, partial curve, poor fit].

Take `O=c1[nH]c(C2CCN(S(=O)(=O)/C=C/c3ccccc3)CC2)nc2c1nnn2Cc1ccc(F)cc1`: the AC50 under setting [1] was 20 µM [falling, single point].

For `CCCCN=Cc1sc2ccc(OCC)cc2c1O`, the AC50 under setting [1] was 23.1 µM [falling, single point].

In the case of `CCc1ccc(Oc2coc3cc(OC(=O)c4cc5ccccc5oc4=O)ccc3c2=O)cc1`, the AC50 under setting [1] is 18.4 µM [rising, single point].

Consider `O=C1CN(C(=O)c2ccc(Cl)nc2)c2ccccc2N1`, for which the AC50 under setting [1] was 22.4 µM [rising, single point].

In the case of `COc1ccc(-c2csc(NC(=S)NC(=O)c3ccco3)n2)cc1Br`, the AC50 under setting [1] was 7.08 µM [rising, partial curve, poor fit].

In the case of `O=C(/C=C/c1ccc2c(c1)OCCO2)c1ccccc1`, under setting [1], the AC50 was 35.5 µM [falling, single point].

Regarding `CC(C)[C@H](NC(=O)N1CCn2c1nc1ccccc12)C(=O)NCc1ccccc1Cl`, under setting [1], the AC50 is 11.2 µM [falling, single point].

Take `COc1ccccc1C(=O)Nc1ccc2oc(-c3ccc(F)cc3)nc2c1`: the AC50 under setting [1] was 0.164 µM [falling, full curve, poor fit].

`COc1cccc(-c2cc(=O)[nH][nH]2)c1`: the concentration at half-maximal activity (AC50) reads like this: under setting [1], 20 µM [falling, partial curve, poor fit]; under setting [2], 6.31 µM [rising, partial curve, poor fit].

Consider `COC(=O)c1ccccc1NC(=O)CN(c1ccc(OC)cc1)S(C)(=O)=O`, for which, under setting [1], the concentration at half-maximal activity (AC50) is 29.1 µM [rising, single point].

Take `COc1ccc(C2C=C(Nc3ccccc3)C(=O)N2c2ccccc2)cc1OC` (configuration not stated): under setting [1], the AC50 is 20.6 µM [falling, single point].

As to `CCn1c2ccccc2c2cc(Nc3cc(C)nc4ncnn34)ccc21`, the AC50 was 6.51 µM [rising, full curve] under setting [1] and 8.2 µM [falling, partial curve] under setting [2].

Turning to `O=c1nc(/C=C/c2ccc(O)c(O)c2)oc2ccccc12`, the AC50 under setting [1] is 7.08 µM [falling, partial curve].

In the case of `CCOC(=O)c1ccc(NC(=O)CSc2nnnn2C2CCCCC2)cc1`, the AC50 under setting [1] is 32.6 µM [falling, partial curve, poor fit].

For the compound `O=C(CC12CC3CC(CC(C3)C1)C2)N1CCCC1`, under setting [1], the AC50 is 23.1 µM [falling, partial curve].

On to `COc1ccccc1CC(=O)Nc1ccc2c(C)cc(=O)oc2c1`, for which, under setting [1], the AC50 is 12.6 µM [falling, partial curve, poor fit].

Consider `C[C@H](CO)N1C[C@H](C)[C@@H](CN(C)C(=O)Nc2ccc3c(c2)OCO3)Oc2ccc(NS(=O)(=O)c3ccccc3)cc2C1=O`, for which the AC50 under setting [1] is 0.731 µM [rising, full curve, poor fit].

With `O=C(NCc1ccc(F)cc1)c1cccc(S(=O)(=O)N2CCOCC2)c1`, the AC50 under setting [1] is 14.6 µM [rising, partial curve, poor fit].

As for `Cc1nc(-c2ccccn2)nc(SCC(=O)c2ccccc2)c1Cl`, the AC50 under setting [1] was 0.794 µM [falling, full curve, poor fit].

For the compound `CCCCn1cnc2c(oc3ccccc32)c1=O`, the AC50 under setting [1] was 0.501 µM [rising, full curve, poor fit].

With `CC(OC(=O)CCCOc1ccccc1)C(=O)NC(N)=O` (configuration not stated), the AC50 under setting [1] is 29.1 µM [rising, single point].

On to `CC(C)(C)c1ccc(C(=O)N2CCC(C(=O)NC3CC3)CC2)cc1`, for which the AC50 under setting [1] is 4.47 µM [rising, full curve, poor fit].

For the compound `Oc1ccc(N2CCN(c3ncnc4sc(-c5ccccc5)cc34)CC2)cc1`, the AC50 under setting [1] is 22.4 µM [falling, partial curve, poor fit].

`Cc1ccc(C)c(NC(=O)c2cc3ccccc3o2)c1`: the AC50 under setting [1] was 15.8 µM [falling, partial curve, poor fit].

For `COc1ccc(C2C(C(C)=O)=C(O)C(=O)N2c2nc3ccccc3s2)cc1OC` (configuration not stated), the half-maximal activity concentration (AC50) under setting [1] was 6.31 µM [rising, single point].

On to `COc1ccc(CN2C[C@H]3CCCN3c3cc(Br)ccc3S2(=O)=O)cc1`, for which the AC50 by setting is: under setting [1], 8.2 µM [rising, partial curve]; under setting [2], 14.6 µM [falling, partial curve].

For `CCOC(=O)c1ccc(NC(=S)NCc2ccco2)cc1`, the AC50 under setting [1] is 1.78 µM [rising, partial curve, poor fit].
